Experimental data: paper PMC11076679
These are yes or no findings as the source states them, for the method shown. Binding seen in cells or lysates may run through a third protein. A yes stands for co-enrichment or nearness to the bait. Other partners may have been found. A no says only that the protein was not detected with the bait.

Target: T1, synthetic peptide corresponding to the nonphosphorylated ITIM of Ly49Q (…)
T1 sequence (peptide, conjugated to SulfoLink resin): CGGMSEQEVTYSTVRFHK
Assay: affinity purification with mass spectrometry; peptides conjugated to SulfoLink resin, incubated with Raw264.7 lysates (50 mM Tris-HCl pH 7.5, 1 mM EDTA, 10% glycerol, 150 mM NaCl, 1% NP-40) 1 h at 4°C; SDS-PAGE, silver staining, bands specific for the phosphorylated peptide analysed by LC-MS/MS; only the target purified

Shc (endogenous) (mouse (endogenous in RAW264.7))
binding: no binding
